Primary screen of a compound library

Measurements from “University of Dundee, Small-Polar-MMV Screening Library” (2021), ChEMBL document CHEMBL3988442.

Mtb growth Cornell: 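Whole-cell assay for inhibitors of Mycobacterium tuberculosis growth, labelled Cornell in the record; the read-out is not stated. The concentration is filed as 10 mM, unlikely as a test dose, so the dose is not known. The record gives no direction; compounds strong in two other growth screens of this library score well above the rest, so higher reads as stronger inhibition. Size under these conditions: about 53,000 compounds, about 900 of them at 50% or above in at least one test.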
Mtb heat-shock: 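Assay on Mycobacterium tuberculosis, filed only as a heat shock assay from Cornell; the read-out is not stated. The concentration is filed as 10 mM, unlikely as a test dose, so the dose is not known. Higher reads as stronger inhibition (inferred: compounds with an IC50 in retests scored well above the rest). Of about 69,000 compounds tested this way, about 930 (1.4%) reached 50% or more in at least one test.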

Results are given as percent effect.
The controls that fix the scale are not given in the record; negative values are as filed.
This is an unselected part of the compounds tested.

Result for CCC(=O)N1CCC2(CC1)CC(CC(=O)NC1CC1)c1ccccc1O2 (stereo unspecified) was Mtb growth Cornell: 15.82%; Mtb heat-shock: -7.896%.
Result for CC(C)(C)c1ncc(CNc2ccccc2Cn2cncn2)s1 was Mtb heat-shock: -19.95%.
Result for Cc1cc2cc(CNC3CCN(S(C)(=O)=O)CC3)oc2cc1C was Mtb growth Cornell: -27.43%; Mtb heat-shock: 0.1333%.
Result for CCc1nnc(NC(=O)NCCN(C)C(=O)OC(C)(C)C)s1 was Mtb growth Cornell: -17.21%; Mtb heat-shock: -16.64%.
Result for Cc1cccc(C)c1NC(=O)CC(CN1CCN(C)CC1)C(=O)O (stereo unspecified) was Mtb growth Cornell: 68.43%; Mtb heat-shock: 21.38%.
Result for Cn1cnnc1C1CCCN(C(=O)c2ccc3c(c2)OCCO3)C1 (stereo unspecified) was Mtb growth Cornell: -14.36%; Mtb heat-shock: 21.93%.
Result for Cn1nccc1-c1ccc2nc(C3CCN(CCO)CC3)nn2c1.O=C(O)C(F)(F)F was Mtb growth Cornell: 31.7%; Mtb heat-shock: 5.924%.
Result for CCN(CC)CCCNCc1cc2cc(C)ccc2[nH]c1=O was Mtb growth Cornell: 4.422%; Mtb heat-shock: 11.18%.
Result for CCC(NC(=O)c1cnc(N(C)C)nc1C)c1ccncc1 (stereo unspecified) was Mtb heat-shock: -171.5%.
Result for CNS(=O)(=O)CC(=O)N(Cc1ccccc1)c1ccc(C)cc1 was Mtb growth Cornell: 1.696%; Mtb heat-shock: 9.3%.
Result for CS(=O)(=O)NCCNC(=O)Cc1ccc(Br)s1 was Mtb growth Cornell: -17.58%; Mtb heat-shock: -12.37%.
Result for [H][C@@]12CN(C(=O)c3cc(C)oc3C)C[C@]1([H])[C@H]2CN(C)CCc1ccccn1 was Mtb growth Cornell: -8.799%; Mtb heat-shock: -37.83%.
Result for CCN(Cc1cccnc1)CC1(C)Cc2c(N)nc(N)nc2O1 (stereo unspecified) was Mtb growth Cornell: 2.103%; Mtb heat-shock: 12.42%.
Result for CS(=O)(=O)N1CCc2[nH]cnc2C12CCN(C1CCOCC1)CC2 was Mtb growth Cornell: 27.56%; Mtb heat-shock: 9.634%.
Result for CCCn1c(O)nnc1SCC1OCCc2ccccc21 (stereo unspecified) was Mtb growth Cornell: 11.07%; Mtb heat-shock: 4.784%.
Result for Cc1ccc(NCc2ncc(C(C)(C)C)o2)c(Cl)c1 was Mtb growth Cornell: 19.32%; Mtb heat-shock: -4.595%.
Result for CCC1(c2ccc(NS(=O)(=O)c3ccc(Cl)s3)cc2)CCC(=O)NC1=O (stereo unspecified) was Mtb growth Cornell: 11.88%; Mtb heat-shock: 4.757%.
Result for O=C(O)C(F)(F)F.O=C(O)C(F)(F)F.[H][C@@]12CN(CCOC)CC[C@]1([H])CN(Cc1nccn1C)C2 was Mtb growth Cornell: 23.36%; Mtb heat-shock: -13.98%.
Result for CN1CC(C(=O)NCCc2ccc(F)c(Br)c2)CC1=O (stereo unspecified) was Mtb growth Cornell: -10.16%; Mtb heat-shock: -14.83%.
Result for CN(C)c1cnn(CC(=O)N2CCN(Cc3cccs3)CC2)c(=O)c1 was Mtb growth Cornell: -12.36%; Mtb heat-shock: 1.311%.
Result for O=C(O)C(F)(F)F.O=C(O)C(F)(F)F.[H][C@@]12CCN(Cc3cnn(C)c3)C[C@]1([H])[C@@H](CNc1ncccn1)OC2 was Mtb growth Cornell: -6.488%; Mtb heat-shock: -9.451%.
Result for Cc1cc(NCCNc2ccc(C#N)cn2)nc(C)n1 was Mtb growth Cornell: -8.882%; Mtb heat-shock: -18.17%.
Result for Cn1ccnc1CN1CCC(CCCc2ccccn2)(C(N)=O)CC1 was Mtb growth Cornell: 1.254%; Mtb heat-shock: -10.56%.
Result for CN1CCN(C(=O)c2cc(-c3cnc(N4CCCC4)nc3)cn2C)CC1 was Mtb growth Cornell: 2.355%; Mtb heat-shock: -30.7%.
Result for O=C(O)C(F)(F)F.O=C(O)C(F)(F)F.[H][C@@]12CCCO[C@]1([H])[C@H](OC)CN2Cc1scnc1C was Mtb growth Cornell: 6.241%; Mtb heat-shock: 29.81%.
Result for Cc1nc(Nc2nccs2)cc(C2CN(C(C)C)C2)n1 was Mtb growth Cornell: 8.776%; Mtb heat-shock: 0.1104%.
Result for CC[C@@H]1N(CC2CC2)CCC[C@]12CCC(=O)N2.O=C(O)C(F)(F)F was Mtb growth Cornell: 22.81%; Mtb heat-shock: -12.09%.
Result for O=C(N1CCC(Oc2ccncc2)CC1)C1(c2ccc(F)cc2)CC1 was Mtb growth Cornell: 28.1%; Mtb heat-shock: -7.693%.
Result for Cc1nc(CN2CCCC(CCc3ccc(F)c(F)c3)C2)c[nH]1 (stereo unspecified) was Mtb heat-shock: 0.9146%.
Result for COc1ccc(NC(=O)N2CCCCC2c2ncc[nH]2)cc1 (stereo unspecified) was Mtb heat-shock: -6.684%.
Result for CCCNC(=O)CNc1cc(C(=O)NCC(F)(F)F)cc(F)c1C was Mtb growth Cornell: 12.23%; Mtb heat-shock: 23.49%.
Result for CCOC(=O)CC1CCCCN1C(=O)c1cc(C)oc1C (stereo unspecified) was Mtb growth Cornell: 39.87%; Mtb heat-shock: 14.17%.
Result for O=C(Nc1cc(-n2cccc2)ccc1F)N1CCCC1 was Mtb growth Cornell: -2.461%; Mtb heat-shock: -7.996%.
Result for O=C([C@@H]1CCCN1c1nccc(Nc2ccccc2)n1)N1CCCCC1 was Mtb growth Cornell: -15.38%; Mtb heat-shock: -18.81%.
Result for CCn1c(CN(C)C(=O)c2ccc(OC)nc2)nc2ccccc21 was Mtb heat-shock: -9.235%.
Result for Cc1noc(CCNC(=O)NCc2ccc(N3CCCCC3)cc2)n1 was Mtb growth Cornell: -16.9%; Mtb heat-shock: 8.622%.
Result for COc1c(C2CC(=O)Nc3[nH]ncc32)cc2c(c1OC)OCO2 (stereo unspecified) was Mtb growth Cornell: 18.46%; Mtb heat-shock: -2.151%.
Result for O=C(c1[nH]c2ccc(Cl)cc2c1Cl)N1CCC2(CC1)OCCO2 was Mtb growth Cornell: 2.525%; Mtb heat-shock: -7.406%.
Result for O=C1NCCN(CC2CC2)C12CCN(Cc1ccco1)CC2 was Mtb growth Cornell: -14.53%; Mtb heat-shock: -9.377%.
Result for CCN1CCC(CC(=O)N2CCn3cccc3C2c2cccnc2)CC1 (stereo unspecified) was Mtb growth Cornell: -19.46%; Mtb heat-shock: -7.387%.

Once more, the final 5:

- Cc1noc(CCNC(=O)NCc2ccc(N3CCCCC3)cc2)n1 | Mtb growth Cornell: -16.9%; Mtb heat-shock: 8.622%
- COc1c(C2CC(=O)Nc3[nH]ncc32)cc2c(c1OC)OCO2 (stereo unspecified) | Mtb growth Cornell: 18.46%; Mtb heat-shock: -2.151%
- O=C(c1[nH]c2ccc(Cl)cc2c1Cl)N1CCC2(CC1)OCCO2 | Mtb growth Cornell: 2.525%; Mtb heat-shock: -7.406%
- O=C1NCCN(CC2CC2)C12CCN(Cc1ccco1)CC2 | Mtb growth Cornell: -14.53%; Mtb heat-shock: -9.377%
- CCN1CCC(CC(=O)N2CCn3cccc3C2c2cccnc2)CC1 (stereo unspecified) | Mtb growth Cornell: -19.46%; Mtb heat-shock: -7.387%